Taken from: PubChem BioAssay AID1259254 (NCATS, 2017)
Test: 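Finding genes that stop cells copying their DNA twice in one cycle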 (primary screen). Cell system: human HCT116 colorectal cancer cells. Reagents: single siRNA against human genes. Time to read-out: 3 days. Read-out: 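Nuclei stained with Hoechst and imaged; cell-cycle phase assigned by DNA content; G2 share scaled per plate, non-targeting siRNA 0%, GMNN siRNA 100%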. Scale: G2 robust z-score and G2 cells, % of GMNN control: higher = more G2 cells, more excess DNA replication. Call rule: 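Active siRNAs have a G2 robust z of 5 or more median absolute deviations over the median, which in these data means about 38% or higher of GMNN control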.
In all, the deposit lists about 59,000 reagents; shown is a part drawn at random. In the full data, about 1,550 (2.6%) are marked active. 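G2 share is only a proxy for re-replication; each gene was hit by three separate siRNAs, and active genes were retested.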 Not all columns of the deposit are shown. Reagent sequences are not shown. The record does not give: the amount of reagent.

| gene | PubChem SID | G2 robust z-score | G2 cells, % of GMNN control | Outcome |
| --- | --- | --- | --- | --- |
| SOX15 (SRY-box transcription factor 15) | SID160717217 | 2.43 | 20.1 | inactive |
| SOX15 (SRY-box transcription factor 15) | SID160717218 | 0.836 | 8.85 | inactive |
| SOX15 (SRY-box transcription factor 15) | SID160731778 | 0.519 | 6.62 | inactive |
| ENTPD5 (ectonucleoside triphosphate diphosphohydrolase 5) | SID160739313 | 3.63 | 28.5 | inactive |
| ENTPD5 (ectonucleoside triphosphate diphosphohydrolase 5) | SID160739324 | 0.514 | 6.58 | inactive |
| ENTPD5 (ectonucleoside triphosphate diphosphohydrolase 5) | SID160739335 | -0.724 | -2.12 | inactive |
| LCAT (lecithin-cholesterol acyltransferase) | SID160776538 | -0.203 | 1.54 | inactive |
| LCAT (lecithin-cholesterol acyltransferase) | SID160776539 | 0.428 | 5.98 | inactive |
| LCAT (lecithin-cholesterol acyltransferase) | SID160776540 | -0.92 | -3.5 | inactive |
| CNPY1 (canopy FGF signaling regulator 1) | SID160763739 | -0.01 | 2.9 | inactive |
| CNPY1 (canopy FGF signaling regulator 1) | SID160763740 | -0.255 | 1.17 | inactive |
| CNPY1 (canopy FGF signaling regulator 1) | SID160763741 | -0.23 | 1.35 | inactive |
| NUDT4 (nudix hydrolase 4) | SID160730085 | -0.441 | -0.138 | inactive |
| NUDT4 (nudix hydrolase 4) | SID160730086 | 1.76 | 15.3 | inactive |
| NUDT4 (nudix hydrolase 4) | SID160730087 | -0.00273 | 2.95 | inactive |
| KBTBD7 (kelch repeat and BTB domain containing 7) | SID160751696 | 0.645 | 7.51 | inactive |
| KBTBD7 (kelch repeat and BTB domain containing 7) | SID160751697 | -0.11 | 2.19 | inactive |
| KBTBD7 (kelch repeat and BTB domain containing 7) | SID160751698 | -0.13 | 2.05 | inactive |
| RUFY4 (RUN and FYVE domain containing 4) | SID160763518 | 2.39 | 19.8 | inactive |
| RUFY4 (RUN and FYVE domain containing 4) | SID160763519 | -0.199 | 1.57 | inactive |
| RUFY4 (RUN and FYVE domain containing 4) | SID160763520 | -0.691 | -1.9 | inactive |
| ARHGAP1 (Rho GTPase activating protein 1) | SID160719850 | 1.05 | 10.3 | inactive |
| ARHGAP1 (Rho GTPase activating protein 1) | SID160719861 | -0.688 | -1.88 | inactive |
| ARHGAP1 (Rho GTPase activating protein 1) | SID160719871 | -1.3 | -6.15 | inactive |
| DNAH7 (dynein axonemal heavy chain 7) | SID160744928 | -1.08 | -4.65 | inactive |
| DNAH7 (dynein axonemal heavy chain 7) | SID160744929 | -0.41 | 0.0819 | inactive |
| DNAH7 (dynein axonemal heavy chain 7) | SID160744930 | -0.882 | -3.24 | inactive |
| TIPE3 (TNF alpha induced protein 8 like 3) | SID160765769 | -0.127 | 2.07 | inactive |
| TIPE3 (TNF alpha induced protein 8 like 3) | SID160765770 | 0.606 | 7.23 | inactive |
| TIPE3 (TNF alpha induced protein 8 like 3) | SID160765771 | 0.141 | 3.96 | inactive |
| DTX3 (deltex E3 ubiquitin ligase 3) | SID160760609 | 0.75 | 8.25 | inactive |
| DTX3 (deltex E3 ubiquitin ligase 3) | SID160760610 | 0.164 | 4.12 | inactive |
| DTX3 (deltex E3 ubiquitin ligase 3) | SID160760611 | -0.237 | 1.3 | inactive |

Records listed so far whose gene name starts with A or a:
| gene | PubChem SID | G2 robust z-score | G2 cells, % of GMNN control | Outcome |
| --- | --- | --- | --- | --- |
| ARHGAP1 (Rho GTPase activating protein 1) | SID160719850 | 1.05 | 10.3 | inactive |
| ARHGAP1 (Rho GTPase activating protein 1) | SID160719861 | -0.688 | -1.88 | inactive |
| ARHGAP1 (Rho GTPase activating protein 1) | SID160719871 | -1.3 | -6.15 | inactive |

Next results follow:
| gene | PubChem SID | G2 robust z-score | G2 cells, % of GMNN control | Outcome |
| --- | --- | --- | --- | --- |
| OR6C65 (olfactory receptor family 6 subfamily C member 65) | SID160767496 | 2.53 | 20.8 | inactive |
| OR6C65 (olfactory receptor family 6 subfamily C member 65) | SID160767497 | -0.681 | -1.82 | inactive |
| OR6C65 (olfactory receptor family 6 subfamily C member 65) | SID160767498 | -0.474 | -0.368 | inactive |
| ZFP1 (ZFP1 zinc finger protein) | SID160759901 | 0.818 | 8.72 | inactive |
| ZFP1 (ZFP1 zinc finger protein) | SID160759902 | 1.7 | 15 | inactive |
| ZFP1 (ZFP1 zinc finger protein) | SID160759903 | -0.679 | -1.81 | inactive |
| LBHD1 (LBH domain containing 1) | SID160748604 | 3.36 | 26.6 | inactive |
| LBHD1 (LBH domain containing 1) | SID160748605 | -0.334 | 0.614 | inactive |
| LBHD1 (LBH domain containing 1) | SID160748606 | 0.115 | 3.78 | inactive |
| VSIG1 (V-set and immunoglobulin domain containing 1) | SID160764452 | 1.16 | 11.1 | inactive |
| VSIG1 (V-set and immunoglobulin domain containing 1) | SID160764453 | -0.321 | 0.707 | inactive |
| VSIG1 (V-set and immunoglobulin domain containing 1) | SID160764454 | 1.4 | 12.8 | inactive |
| ADCY7 (adenylate cyclase 7) | SID160714112 | 1.41 | 12.9 | inactive |
| ADCY7 (adenylate cyclase 7) | SID160714123 | -0.803 | -2.68 | inactive |
| ADCY7 (adenylate cyclase 7) | SID160714133 | 0.402 | 5.8 | inactive |
| TBC1D3P2 (TBC1 domain family member 3 pseudogene 2) | SID160769685 | -0.498 | -0.535 | inactive |
| TBC1D3P2 (TBC1 domain family member 3 pseudogene 2) | SID160769686 | -0.155 | 1.88 | inactive |
| TBC1D3P2 (TBC1 domain family member 3 pseudogene 2) | SID160769687 | 1.89 | 16.3 | inactive |
| RARRES1 (retinoic acid receptor responder 1) | SID160715682 | -1.08 | -4.62 | inactive |
| RARRES1 (retinoic acid receptor responder 1) | SID160715683 | 1.69 | 14.9 | inactive |
| RARRES1 (retinoic acid receptor responder 1) | SID160731642 | -0.805 | -2.7 | inactive |
| BCAP29 (B cell receptor associated protein 29) | SID160744703 | -0.0457 | 2.65 | inactive |
| BCAP29 (B cell receptor associated protein 29) | SID160744704 | 1.47 | 13.3 | inactive |
| BCAP29 (B cell receptor associated protein 29) | SID160744705 | -0.995 | -4.04 | inactive |
| SLC16A9 | SID160761548 | -0.346 | 0.531 | inactive |
| SLC16A9 | SID160761549 | -0.218 | 1.44 | inactive |
| SLC16A9 | SID160761550 | 0.0248 | 3.14 | inactive |
| SIX6 (SIX homeobox 6) | SID160778406 | -1.34 | -6.48 | inactive |
| SIX6 (SIX homeobox 6) | SID160778407 | 1.14 | 11 | inactive |
| SIX6 (SIX homeobox 6) | SID160778408 | -0.438 | -0.113 | inactive |
| EVI5 (ecotropic viral integration site 5) | SID160719374 | 0.93 | 9.51 | inactive |
| EVI5 (ecotropic viral integration site 5) | SID160719375 | 1.36 | 12.5 | inactive |
| EVI5 (ecotropic viral integration site 5) | SID160719376 | -0.992 | -4.01 | inactive |
| SOX9-AS1 (SOX9 antisense RNA 1) | SID160733316 | 0.649 | 7.53 | inactive |
| SOX9-AS1 (SOX9 antisense RNA 1) | SID160733317 | -0.689 | -1.88 | inactive |
| SOX9-AS1 (SOX9 antisense RNA 1) | SID160734265 | -1.09 | -4.69 | inactive |
| SOX9-AS1 (SOX9 antisense RNA 1) | SID160767004 | 2.97 | 23.9 | inactive |
| SOX9-AS1 (SOX9 antisense RNA 1) | SID160771364 | -0.573 | -1.07 | inactive |
| SOX9-AS1 (SOX9 antisense RNA 1) | SID160771365 | -0.505 | -0.582 | inactive |
